This is an account of results in PubChem BioAssay AID2685 (National Center for Advancing Translational Sciences (NCATS), 2010).

This assay can be described thus: qHTS Assay for Lipid Storage Modulators in Drosophila S3 Cells.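 On cell number change: cells counted by Cell Tracker Red CMTPX staining in the red channel.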 To be noted: BODIPY lipid droplet fluorescence, 18-24 h; for cell number change: measured here: cell count max response, cells fed with added oleic acid. The essentials: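 Laser-scanning cytometry quantifies lipid droplet accumulation (500–530 nm total intensity; droplet/cell object ratio) in oleic acid-fed (400 uM added) Drosophila S3 cells treated with a concentration series. 20 uM Triacsin C defined 100% inhibition.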
(In general: Quantitative high-throughput screening tests each substance at several concentrations.)

The mark [1] stands for this setting: measured here: lipid fluorescence (Fed channel) AC50, cells fed with added oleic acid.
Where [2] appears, read: measured here: cell number channel AC50, cells fed with added oleic acid.

The other results are listed elsewhere or left out. These are further read-outs of the screen, such as a control signal, another cell line or another target. No call is given for them. Compounds called inactive in the main read-out are mostly missing here. Potencies come from curve fits of mixed quality, noted in brackets.

As a reminder, the AC50 is the concentration at which the activity in the assay is half-maximal. Low readings indicate greater potency, high ones weaker potency.

`COc1ccc(/C=C/C(=O)NC2CCCCCCC2)cc1S(=O)(=O)N1CCOCC1`: the cell number change is -1.08%.

With `Cc1ccc(SCC(=O)N=C2NC(=O)CS2)cc1`, the cell number change is -3.17%. Besides, the half-maximal activity concentration (AC50) under setting [1] is 3.66 µM [falling, single point].

In the case of `Cc1ccc(C)c(NC(=O)CN(C)C(=O)c2ccc(Cl)nc2)c1`, the cell number change stood at 17.1%.

Regarding `Clc1cccc(-c2nnc(-c3ccno3)o2)c1`, the cell number change amounted to 9.51%. In addition, under setting [1], the AC50 was 0.291 µM [rising, full curve, poor fit].

`COc1ccc(C2=CC(c3ccc(OC)c(OC)c3)NC(=S)N2)cc1` (stereo unspecified): the cell number change is -6.29%. In addition, the AC50 under setting [1] was 0.326 µM [rising, partial curve].

On to `CCOC(=O)C1=C(COC(=O)CSc2ccc(C)cc2)NC(=O)NC1C` (stereo unspecified), for which the cell number change is -0.778%.

As to `Cc1cc(C)n2ncc(C(=O)NCCc3ccccc3)c2n1`, the cell number change turned out to be 77.7%. The AC50 under setting [2] was 14.6 µM [rising, partial curve, poor fit]. The AC50 under setting [1] was 0.58 µM [rising, partial curve, poor fit].

In the case of `O=C(COC(=O)c1ccccc1NC(=O)c1ccco1)NC1CCCCC1`, the cell number change worked out at 46.8%. For the same compound, the AC50 under setting [1] is 0.461 µM [rising, full curve].

As for `Cc1oc(-c2ccccc2)cc1C(=O)Nc1ccccc1`, the cell number change was -4.06%. Also, the AC50 under setting [1] is 2.59 µM [rising, partial curve].

As for `O=C1C(Cl)=C(N2CCCCCC2)C(=O)N1c1ccc(Br)cc1`, the cell number change is -0.739%. Moreover, under setting [1], the concentration at half-maximal activity (AC50) is 16.4 µM [falling, single point].

For the compound `CC(C)CN(CCCNC(=O)CN1C(=O)COc2ccc(S(=O)(=O)N3CCOCC3)cc21)CC(C)C`, the cell number change is 2.65%. Also, the AC50 under setting [1] was 2.31 µM [falling, partial curve].

`Cc1cc(C(=O)NC(C)C2CCCO2)no1` (stereo unspecified): the cell number change is -43.6%. Besides, under setting [2], the concentration at half-maximal activity (AC50) was 29.1 µM [falling, single point]. The AC50 under setting [1] is 29.1 µM [falling, single point].

On to `CCCCC(=O)NC1=C(C(=O)OC)SCC1`, for which the cell number change is -21%.

As for `CC(=O)c1ccc(NC(=O)c2cnn3ccccc23)cc1`, the AC50 under setting [1] was 0.92 µM [rising, full curve, poor fit].

Turning to `O=C1CCC(=O)N1CC(=O)N1CCCc2ccccc21`, the cell number change is -21.9%. The AC50 under setting [1] was 0.206 µM [falling, single point].

With `CCOC1=C/C(=C/c2c(N)n3oc(C)cc3nc2=O)C=CC1=O`, the cell number change was -57%. Also, the AC50 under setting [2] is 25.9 µM [falling, single point]. Under setting [1], the concentration at half-maximal activity (AC50) was 25.9 µM [falling, partial curve, poor fit].

Take `O=C1CCC([N+](=O)[O-])C(c2ccccc2Br)N1` (stereo unspecified): the cell number change was -8.84%. Also, the half-maximal activity concentration (AC50) under setting [1] is 3.26 µM [rising, full curve].

For the compound `COc1ccc(OC)c(NC(=O)c2ccccc2NC(=O)c2ccco2)c1`, the cell number change is -2.74%. Moreover, the AC50 under setting [1] is 4.11 µM [rising, partial curve, poor fit].

As for `Cc1c(C(=O)N2CCCCC2CCN2CCCC2=O)oc2c(F)cccc12` (stereo unspecified), the cell number change is 40.5%. Also, the AC50 under setting [2] was 29.1 µM [rising, single point].

Regarding `Nc1nc(SCC(=O)NCc2ccccc2Cl)[nH]c(=O)c1NC(=O)c1ccccc1F`, the cell number change turned out to be 8.45%. Moreover, the concentration at half-maximal activity (AC50) under setting [1] was 3.26 µM [rising, partial curve, poor fit].

Regarding `COc1ccc(-n2cnnc2)cc1`, the cell number change worked out at 18.1%.

For `COC(=O)NC(NC(=S)Nc1cccc(C)c1)C(Cl)(Cl)Cl` (stereo unspecified), the cell number change worked out at 6.68%. In addition, the AC50 under setting [1] was 6.51 µM [falling, single point].

On to `COc1ccc(Nc2nnc(SCC(=O)c3cc(C)n(CC4CCCO4)c3C)s2)cc1` (stereo unspecified), for which the cell number change was found to be 11.7%. The half-maximal activity concentration (AC50) under setting [2] was 2.06 µM [rising, partial curve]. In addition, the AC50 under setting [1] is 6.51 µM [rising, partial curve, poor fit].

For `NS(=O)(=O)c1ccc(-c2ccc(/C=N/Nc3ccc(C(=O)O)cc3)o2)cc1`, the cell number change turned out to be 37.5%. Further, under setting [2], the concentration at half-maximal activity (AC50) was 2.06 µM [rising, single point].

In the case of `CCOC(=O)c1oc2c(C)c(O)ccc2c(=O)c1-c1nncn1-c1ccccc1`, the cell number change is -5.5%. Besides, the AC50 under setting [1] is 29.1 µM [rising, single point].

Take `O=C(Cc1ccc(Cl)cc1)Nc1ccccc1C(=O)N1CCCCC1`: the cell number change is -18.5%. Besides, the AC50 under setting [2] was 7.31 µM [falling, partial curve, poor fit].

With `COC(=O)c1c(C)n(-c2ccc(C)cc2)c2ccc(O)cc12`, the half-maximal activity concentration (AC50) under setting [2] is 6.51 µM [falling, single point] and the AC50 under setting [1] is 6.51 µM [falling, single point].

For `Cc1cccc(C)c1Nc1nnc(SCc2cc([N+](=O)[O-])cc3c2OCOC3)s1`, the cell number change was 89.5%. The AC50 under setting [2] is 5.8 µM [rising, full curve]. Further, the concentration at half-maximal activity (AC50) under setting [1] was 6.51 µM [rising, single point].

Consider `Cc1c(C(=O)N2CCN(Cc3cccs3)CC2)oc2ccccc12`, for which the cell number change is -26.1%. Further, the AC50 under setting [1] was 3.26 µM [falling, partial curve].

On to `CCOc1cc2c(Cl)ncnc2c(OCC)c1OCC`, for which the cell number change was -7.62%. The AC50 under setting [2] is 6.51 µM [falling, single point]. Further, the AC50 under setting [1] was 6.51 µM [falling, single point].

For the compound `C/C(CC(=O)Nc1cc(Cl)ccc1Cl)=N\NC(=O)COc1cccc(C)c1`, the cell number change amounted to 10.5%. Moreover, the concentration at half-maximal activity (AC50) under setting [1] was 15.8 µM [falling, single point].

For the compound `CCc1ccc2[nH]c(=O)c(CN(Cc3ccco3)S(=O)(=O)c3ccc4c(c3)OCCO4)cc2c1`, the cell number change was found to be 0.55%. The AC50 under setting [1] was 6.51 µM [rising, partial curve].

Take `Clc1ccccc1C(c1ccccc1)(c1ccccc1)n1ccnc1`: the cell number change was determined as 40.7%. Besides, the AC50 under setting [2] was 29.1 µM [rising, single point]. In addition, the AC50 under setting [1] is 29.1 µM [rising, single point].

In the case of `Cc1nc2ccccn2c1/C(O)=C1\C(=O)C(=O)N(CCN2CCOCC2)C1c1ccncc1` (stereo unspecified), the cell number change is -31.7%. The AC50 under setting [2] was 0.00461 µM [falling, full curve, poor fit]. The half-maximal activity concentration (AC50) under setting [1] was 0.00461 µM [falling, full curve, poor fit].

Take `Cc1cccc2cc(C(c3nnnn3Cc3ccc4c(c3)OCO4)N3CCCC3)c(=O)[nH]c12` (stereo unspecified): the cell number change amounted to 51%. Also, under setting [2], the half-maximal activity concentration (AC50) was 0.366 µM [rising, full curve]. Besides, the AC50 under setting [1] is 0.58 µM [rising, full curve].

`Cc1cccc(Nc2nnc(-c3ccc(N4CCOCC4)c([N+](=O)[O-])c3)c3ccccc23)c1`: the cell number change was -32.1%. For the same compound, the half-maximal activity concentration (AC50) under setting [2] was 1.03 µM [falling, full curve, poor fit]. Also, under setting [1], the AC50 was 0.116 µM [falling, full curve].
